{"sequences": {"note": "Sequences of proteins named here, by UniProt entry; tags and fusion partners are left off. A change or cut given only in a name is not applied to a line headed by its entry.", "UniProt P18054": "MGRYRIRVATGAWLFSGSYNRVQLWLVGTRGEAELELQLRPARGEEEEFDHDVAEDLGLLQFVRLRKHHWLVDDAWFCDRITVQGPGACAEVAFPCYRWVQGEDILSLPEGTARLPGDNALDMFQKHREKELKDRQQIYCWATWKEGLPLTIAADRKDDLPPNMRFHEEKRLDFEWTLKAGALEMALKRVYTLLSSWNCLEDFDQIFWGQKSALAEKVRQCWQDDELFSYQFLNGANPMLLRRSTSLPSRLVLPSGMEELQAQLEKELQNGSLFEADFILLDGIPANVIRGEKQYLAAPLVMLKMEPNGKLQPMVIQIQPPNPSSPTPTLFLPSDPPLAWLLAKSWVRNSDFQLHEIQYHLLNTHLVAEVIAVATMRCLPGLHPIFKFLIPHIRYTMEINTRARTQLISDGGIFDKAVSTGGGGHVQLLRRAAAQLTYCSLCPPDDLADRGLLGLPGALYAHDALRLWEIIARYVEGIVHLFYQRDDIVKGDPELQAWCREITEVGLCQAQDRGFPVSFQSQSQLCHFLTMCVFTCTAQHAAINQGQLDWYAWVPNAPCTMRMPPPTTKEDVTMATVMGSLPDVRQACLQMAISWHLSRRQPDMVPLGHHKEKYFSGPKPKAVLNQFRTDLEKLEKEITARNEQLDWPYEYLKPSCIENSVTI"}, "source": "PubChem BioAssay AID1671190", "about": "(National Center for Advancing Translational Sciences (NCATS), 2021)", "note": "About 6,100 (1.1%) of roughly 580,000 compounds were called active. The shares of active, inactive and inconclusive entries below differ from those in the screen. Calls follow the shape of the dose curve; as a rule, active = well fitted inhibition curve with a large enough effect; inconclusive = small, poorly fitted or top-dose-only effect, or another doubt; inactive = no such curve, though single readings can be large or run the other way. Potencies of inconclusive entries are doubtful fits and often do not repeat. Potency is read from the fitted curve at half-maximal effect."}
{"molecular_target": "Polyunsaturated fatty acid lipoxygenase ALOX12 (Homo sapiens) (UniProt P18054)", "assay": "Primary qHTS assay for inhibitors of human arachidonate 12S-lipoxygenase (ALOX12): Round 2", "settings": "purified 12hLO, xylenol orange hydroperoxide absorbance; series mostly up to 108 µM", "how_it_was_run": "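Hydroperoxide product was detected by ferrous iron/xylenol orange as the 573 to 405 nm absorbance ratio. Arachidonic acid at 40 uM (final) was turned over for 30 min at room temperature by 150 nM human 12hLO, pH 7.0 Hepes buffer, after 15 min compound preincubation.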"}
{"molecule": "O=C(O)/C=C/C(=O)Nc1ccc(N2CCOCC2)cc1", "Potency": "active: 31.6 µM"}
{"molecule": "Cc1cccc(C(=O)Nc2ccc(S(=O)(=O)Nc3cnc4ccccc4n3)cc2)c1", "Potency": "inconclusive: 35.5 µM [inhibitor, partial curve, poor fit]"}
{"molecule": "Nc1nc(-c2ccc([N+](=O)[O-])cc2)cc(=O)[nH]1", "Potency": "inactive"}
{"molecule": "COc1ccc(C2Nc3ccccc3NC3=C2C(=O)CC(C)(C)C3)cc1OC", "note": "(configuration not stated)", "Potency": "inactive"}
{"molecule": "CCOc1cc(S(=O)(=O)N(CCO)CCO)ccc1Br", "Potency": "inactive"}
{"molecule": "COc1cccc2sc(NNC(=O)c3nc4ccccc4s3)nc12", "Potency": "inconclusive: 35.5 µM [inhibitor, partial curve, poor fit]"}
{"molecule": "Nc1ncc2c(n1)CCN(c1ccc([N+](=O)[O-])cc1)C2", "Potency": "inconclusive: 4.47 µM [inhibitor, partial curve, poor fit]"}
{"molecule": "c1ccc(-c2nnc(CSc3nnnn3C3CCCC3)o2)cc1", "Potency": "inconclusive: 35.5 µM [inhibitor, single point]"}
{"molecule": "Cc1ncc2c(c1CNC(=O)c1cc(F)cc(Cl)c1)CCNC2", "Potency": "inconclusive: 11.2 µM [inhibitor, full curve, poor fit]"}
{"molecule": "Cc1ccc(N2CC(C(=O)Nc3ncc([N+](=O)[O-])s3)CC2=O)cc1", "note": "(configuration not stated)", "Potency": "inconclusive: 50.1 µM [inhibitor, partial curve, poor fit]"}
{"molecule": "CCC(C)(C)c1ccc(OCC(O)CNCc2ccccc2)c(C(C)(C)CC)c1", "note": "(configuration not stated)", "Potency": "active: 44.7 µM"}
{"molecule": "COc1ccc(OC)c(CCNC(=O)c2cnn(-c3ccc(C)cc3C)c2C2CCN(C(=O)OC(C)(C)C)CC2)c1", "Potency": "inactive"}
{"molecule": "CC(=O)c1ccc(N2CCN(S(=O)(=O)c3cc(-c4noc(C)n4)ccc3C)CC2)cc1", "Potency": "inactive"}
{"molecule": "O=C(NC1CCCCC1)[C@@H]1C[C@@H](O)CN1C1CCN(C(=O)C2CCOCC2)CC1", "Potency": "inactive"}
{"molecule": "Cc1n[nH]c(C)c1C(N)C(=O)N1CC2(C)CN(C)CC(C)(C1)C2O", "note": "(configuration not stated)", "Potency": "inactive"}
{"molecule": "CCN1CCN(C(C(=O)NC2CCCCC2)C2CC2)CC1", "note": "(configuration not stated)", "Potency": "inactive"}
{"molecule": "O=C(Nc1cccc(C(F)(F)F)c1)C1C2CCC3C(CCC21)C3(Cl)Cl", "note": "(configuration not stated)", "Potency": "inconclusive: 2.51 µM [inhibitor, partial curve, poor fit]"}
{"molecule": "COc1ccc(C(=O)NC(=S)NCc2ccco2)cc1", "Potency": "inconclusive: 112 µM [inhibitor, single point]"}
{"molecule": "CC[C@]12c3[nH]c4ccc(Cl)cc4c3CCN1C(=O)[C@@H](CC(=O)NC(C)(C)C)C[C@@H]2C(=O)N1CCN(C(=O)c2ccco2)CC1", "Potency": "inconclusive: 50.1 µM [inhibitor, partial curve, poor fit]"}
{"molecule": "CC1Sc2ccc(C(=O)Nc3ccc(S(=O)(=O)N(C)C)cc3)cc2NC1=O", "note": "(configuration not stated)", "Potency": "inconclusive: 44.7 µM [inhibitor, partial curve, poor fit]"}
{"molecule": "COc1ccc(/C=C2/CC/C(=C\\c3ccc(OC)c(OC)c3OC)C2=O)c(OC)c1OC", "Potency": "inactive"}
{"molecule": "CCOC(=O)N1CCN(C(=O)CSc2ccc(C(F)(F)F)cc2[N+](=O)[O-])CC1", "Potency": "inconclusive: 126 µM [inhibitor, partial curve, poor fit]"}
{"molecule": "CC(=O)N1CCc2nc(-c3ccc(Cl)cc3)nc(-c3ccccc3)c2C1", "Potency": "inconclusive: 25.1 µM [inhibitor, full curve]"}
{"molecule": "O=C(Cc1ccc2cccnc2c1)c1ccc(O)cc1O", "Potency": "inconclusive: 2.51 µM [inhibitor, full curve]"}
{"molecule": "CC(Sc1nnc(-c2ccncc2)n1C1CC1)C(=O)c1ccc(F)cc1", "note": "(configuration not stated)", "Potency": "inactive"}
{"molecule": "O=C(CSc1nncn1-c1cccnc1)N(c1ccccc1)c1ccccc1", "Potency": "inconclusive: 28.2 µM [inhibitor, partial curve, poor fit]"}
{"molecule": "Cc1ccccc1NC(=O)CSc1nc(C2CC2)n(-c2ccccc2)n1", "Potency": "inconclusive: 112 µM [inhibitor, partial curve, poor fit]"}
{"molecule": "Cc1ccc(S(=O)(=O)NNc2nc3ccccc3nc2C(F)(F)F)cc1", "Potency": "inconclusive: 22.4 µM [inhibitor, partial curve, poor fit]"}
{"molecule": "CCCCn1c(SCC(=O)Nc2cc(C)on2)nc2cc(S(N)(=O)=O)ccc21", "Potency": "inactive"}
{"molecule": "Cc1cc(NC(=S)NC(=O)c2ccco2)c2ccccc2n1", "Potency": "inconclusive: 50.1 µM [inhibitor, partial curve, poor fit]"}
{"molecule": "OC[C@@H]1CN(Cc2ccc(-c3ccccc3)cc2)C[C@H](n2cnc3c(NC4CCC4)ncnc32)O1", "Potency": "inconclusive: 6.31 µM [inhibitor, full curve, poor fit]"}
{"molecule": "O=C(Nc1ccc(Cl)cc1F)c1ccc(=O)n(CCOc2ccccc2)n1", "Potency": "inactive"}
{"molecule": "Cn1c(=O)[nH]c(=O)c2c1nc(NCCCO)n2CC(O)COc1ccc(Cl)cc1", "note": "(configuration not stated)", "Potency": "inconclusive: 39.8 µM [inhibitor, single point]"}
{"molecule": "COc1cc(N)c(C(=O)c2nccc3cc(OC)c(OC)cc23)cc1OC", "Potency": "inconclusive: 89.1 µM [inhibitor, single point]"}
{"molecule": "O=C(O)C1=C(C(=O)O)C2C=CC1C2", "Potency": "inconclusive: 10 µM [inhibitor, full curve]"}
{"molecule": "Cc1cc2ccccc2n1CC(=O)N(Cc1ccccc1)C1CC1", "Potency": "inconclusive: 35.5 µM [inhibitor, partial curve, poor fit]"}
{"molecule": "N#CCNC(=O)c1ccc2c(c1)OCCCO2", "Potency": "inconclusive: 44.7 µM [inhibitor, partial curve, poor fit]"}
{"molecule": "CCCNC(=O)N1CC[C@@H](CC(=O)O)[C@@H](CC2=NCCc3cc(F)ccc32)C1", "Potency": "inconclusive: 50.1 µM [inhibitor, full curve]"}
{"molecule": "Cc1nc(C)n(CC(=O)NCC2Cc3cc(-c4cccc(OC(F)(F)F)c4)ccc3O2)n1", "note": "(configuration not stated)", "Potency": "inconclusive: 112 µM [inhibitor, single point]"}
{"molecule": "CC(C)c1ccc(NC(=O)CN2C(=O)NC3(CCCC3)C2=O)cc1", "Potency": "inactive"}
{"molecule": "CC(Oc1ccc(Cl)cc1)C(=O)/C=C/N(C)C", "note": "(configuration not stated)", "Potency": "inconclusive: 44.7 µM [inhibitor, partial curve, poor fit]"}
{"molecule": "COc1cc2c(cc1OC)C(C)N(C(=O)c1cc3c(C)cc(C)cc3[nH]1)CC2", "note": "(configuration not stated)", "Potency": "inactive"}
{"molecule": "Cc1cc(C)cc(N2C(=O)CC(Cn3nc(C)cc3C)C2=O)c1", "note": "(configuration not stated)", "Potency": "inactive"}
{"molecule": "CCC(=O)N1CCc2cc(S(=O)(=O)CCC(=O)NC3CCCCC3)ccc21", "Potency": "inconclusive: 44.7 µM [inhibitor, partial curve, poor fit]"}
{"molecule": "COc1ccc(-c2c(C)nn3c(C(F)(F)F)cc(-c4ccccc4)nc23)cc1", "Potency": "inactive"}
{"molecule": "COc1ccc(CN(Cc2cccn2C)C(=O)c2cc3cc(OC)ccc3[nH]2)cc1", "Potency": "inactive"}
{"molecule": "CC(OC(=O)C12CC3CC(CC(Cl)(C3)C1)C2)C(=O)c1c[nH]c2ccccc12", "note": "(configuration not stated)", "Potency": "inconclusive: 4.47 µM [inhibitor, full curve, poor fit]"}
{"molecule": "O=C(c1ccc(C(F)(F)F)cc1)N1CCc2nc(C3CC3)nc(-c3ccc(Cl)cc3)c2C1", "Potency": "inconclusive: 39.8 µM [inhibitor, full curve]"}
{"molecule": "CC(Sc1nc(-c2ccccc2)cc(C(F)(F)F)n1)C(=O)NCc1ccco1", "note": "(configuration not stated)", "Potency": "inconclusive: 2.51 µM [inhibitor, full curve, poor fit]"}
{"molecule": "OC(c1cc(F)cc(Cl)c1)c1ncc(-c2cccc(C(F)(F)F)c2)[nH]1", "note": "(configuration not stated)", "Potency": "inactive"}
{"molecule": "CC(C)Oc1ccc(-c2nc(NCc3ccco3)c3ccccc3n2)cc1", "Potency": "inconclusive: 79.4 µM [inhibitor, partial curve, poor fit]"}
{"molecule": "Cc1[nH]c2ccccc2c1C(Nc1nccs1)c1ccncc1", "note": "(configuration not stated)", "Potency": "inconclusive: 70.8 µM [inhibitor, partial curve, poor fit]"}
{"molecule": "Cn1ccnc1C(NC(=O)COc1ccccc1-c1ccccc1)c1ccc(F)cc1", "note": "(configuration not stated)", "Potency": "inconclusive: 44.7 µM [inhibitor, partial curve, poor fit]"}
{"molecule": "CCc1ccccc1NC(=O)C(Cc1ccccc1)c1nn[nH]n1", "note": "(configuration not stated)", "Potency": "inconclusive: 31.6 µM [inhibitor, single point]"}
{"molecule": "CCCCCCCCCCCCCCCCC(C(=O)O)C(O)(CC(=O)O)C(=O)O", "note": "(configuration not stated)", "Potency": "inactive"}
{"molecule": "CC(NC(=O)C1CCN(S(=O)(=O)c2cccc(OC(F)(F)F)c2)CC1)c1cccnc1", "note": "(configuration not stated)", "Potency": "inactive"}
{"molecule": "CCCNC(=O)Nc1nc2ccccc2s1", "Potency": "inactive"}
{"molecule": "COc1c(OC)c(O)c2c(=O)cc(-c3c(O)cccc3O)oc2c1OC", "Potency": "inconclusive: 35.5 µM [inhibitor, partial curve, poor fit]"}
{"molecule": "O=C(O)c1cc(-c2cccnc2)nn1-c1ccccn1", "Potency": "inconclusive: 6.31 µM [inhibitor, partial curve, poor fit]"}
{"molecule": "CC1Cc2ccccc2N1S(=O)(=O)c1cccs1", "note": "(configuration not stated)", "Potency": "inactive"}
{"molecule": "CCOC(=O)C1CCN(Cc2ccc(OC)c(C)c2OC)CC1", "Potency": "inconclusive: 0.708 µM [inhibitor, full curve, poor fit]"}
{"molecule": "CCc1c(C(=O)Nc2ccc(F)cc2C)cnn1-c1ccc(OC)nn1", "Potency": "inconclusive: 1.58 µM [inhibitor, full curve, poor fit]"}
{"molecule": "CCc1cc2c(cc(C(=O)OC)n2Cc2nc(-c3ccc(C)cc3)oc2C)s1", "Potency": "inconclusive: 112 µM [inhibitor, single point]"}
{"molecule": "Cc1ccc(/C=N/NC(=O)c2cc3ccccc3cc2O)o1", "Potency": "inconclusive: 39.8 µM [inhibitor, partial curve, poor fit]"}
{"molecule": "CCCCCCn1c(NCCO)nc2c1c(=O)n(C)c(=O)n2C", "Potency": "inconclusive: 141 µM [inhibitor, partial curve, poor fit]"}
{"molecule": "O=C(COc1coc(CN2CCCc3ccccc32)cc1=O)Nc1cccc([N+](=O)[O-])c1", "Potency": "inconclusive: 10 µM [inhibitor, full curve, poor fit]"}
{"molecule": "Oc1ccccc1C(=S)N1CCCC1", "Potency": "inconclusive: 50.1 µM [inhibitor, partial curve, poor fit]"}
